# Among all 140,000 compounds or so, about 4,300 (3.1%) were called active. Inconclusive means that the source gave no clear call. Such entries were picked first, then a sample of the others.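 How the source made its calls: active means readout at or below -70, meaning at least 70% loss of cells showing the perinucleolar compartment, a nuclear body marking cancer cells; inconclusive means readout between -30 and a set limit; inactive means the rest.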
# Assay: High Content Assay for Compounds that inhibit the Assembly of the Perinucleolar Compartment;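 further: plate controls were DMSO wells for no effect and camptothecin positive control wells for full effect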
# Settings: PC3M PTB-GFP, PNC prevalence imaging, 16 h; at 10 µM; active compounds read low
# Method in brief: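 Read-out is percentage of cells bearing a perinucleolar compartment, from automated 20x imaging of fixed, Hoechst-stained PC3M PTB-GFP cells. Cells were seeded 4 h, then exposed 16 h to compound (23 nl of library stock) in duplicate plates.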
row,SMILES,"activity change (PNC), negative = inhibition"
1,N#CCSCC(=O)Nc1ccc(Cl)cc1,inactive: 23.2%
2,CCOC(=O)CSc1nnc2n(Cc3ccccc3)c(=O)c3c4c(sc3n12)CCC4,inconclusive: -32.9%
3,CC1CCN(CCCOc2ccc(OCc3ccccc3)cc2)CC1,inconclusive: -33.7%
4,O=c1c(S(=O)(=O)c2ccc(Cl)cc2)cn(Cc2ccccc2)c2ccc(F)cc12,inconclusive: -49.4%
5,CCOc1c(Cl)cc(CNc2ccc(S(N)(=O)=O)cc2)cc1OC,inactive: -27.1%
6,CC1(C)NC(=O)N(CCOCCOc2ccc3ccccc3c2Br)C1=O,active: -111%
7,CCN(CC)C(=O)N1c2ccccc2C=Cc2ccccc21,active: -105%
8,Cc1cc2nnc(SCCCCN3C(=O)c4ccccc4C3=O)n2c2ccccc12,inconclusive: -31%
9,O=C(OCC(=O)N1CCN(C(=O)c2ccco2)CC1)c1cc(-c2ccccc2)nc2ccccc12,inactive: 17.5%
10,CCSc1ccccc1C(=O)NCCCn1ccnc1,inconclusive: -36.6%
11,COc1cccc(C(=O)NCC(=O)N/N=C/c2cccc(OC(=O)c3ccc([N+](=O)[O-])cc3)c2)c1,inconclusive: -32.6%
12,CC(C)(C)C(=O)NC(NC(=O)C(C)(C)C)c1ccc([N+](=O)[O-])cc1,inactive: 2.19%
13,O=C(COC(=O)[C@H](Cc1ccccc1)NC(=O)c1cccs1)NC1CC1,inactive: 35.3%
14,Cn1c(Sc2ccccc2Cl)c(C=O)c2ccccc21,inconclusive: -36.7%
15,CC(=O)Nc1cc(C(=O)OCC(=O)c2ccc(C)cc2)ccc1C,inconclusive: -49.9%
16,COC(=O)c1ccc(CNC(=O)COC(=O)C2CCC(C(C)(C)C)CC2)cc1 (stereo not drawn),inconclusive: -54.4%
17,Cc1cccc[n+]1CC(=O)c1ccc2c(c1)OCCO2,inconclusive: -68.6%
18,COC(=O)CNC(=O)CN1c2cccc3cccc(c23)S1(=O)=O,inconclusive: -61.6%
19,Cc1cccc(Oc2cc(NC(=O)c3ccccc3)cc([N+](=O)[O-])c2)c1,inactive: 24%
20,O=S(=O)(c1ccc(OCC(O)CNCc2ccco2)c(Cl)c1)N1CCOCC1 (stereo not drawn),inconclusive: -39.7%
21,O=C(CSc1cccc[n+]1[O-])Nc1cc2c(cc1Cl)C(=O)c1ccccc1C2=O,inactive: 18.9%
22,O=C(CN1CC(=O)Oc2ccccc21)OCC(=O)c1cccc(Br)c1,inconclusive: -52.7%

row,SMILES,"activity change (PNC), negative = inhibition"
1,CC1CCCN(C2=C(NS(=O)(=O)c3ccc(Cl)cc3)C(=O)c3ccccc3C2=O)C1 (stereo not drawn),inconclusive: -37.4%
2,COc1ccc2oc(C)c(C(=O)Cn3ccnc3)c2c1,inconclusive: -38.3%
3,C=C(C)C1CC=C(C)/C(=N\NC(=O)CNc2ccccc2OC)C1 (stereo not drawn),active: -81.8%
4,O=C(CNC(=O)c1ccco1)OCc1ccc(C(=O)Oc2ccccc2)cc1,inconclusive: -33.9%
5,C/C(=N\NC(=O)c1ccccc1C)c1ccc(N2CCOCC2)cc1,inconclusive: -31.2%
6,Cc1ccc(NC(=S)NCCc2ccc(S(N)(=O)=O)cc2)cc1C,active: -109%
7,CCn1c(=O)cc(SCC(=O)Nc2cccnc2)c2ccccc21,inconclusive: -45.3%
8,CCC1(C)Cc2c(sc3nc(SCC(=O)O)[nH]c(=O)c23)CO1 (stereo not drawn),active: -102%
9,CC(C)C(NC=C1C(=O)OC(C)(C)OC1=O)C(=O)O (stereo not drawn),inactive: -20.2%
10,CCC(C(=O)N1CCN(c2ccccc2OC)CC1)c1ccccc1 (stereo not drawn),inactive: 19.3%
11,CN(C)c1ccc(/C(=N\O)C(F)(F)F)cc1,inconclusive: -59.3%
12,CN(C(=O)c1cc2n(n1)C(C(F)(F)F)CC(c1ccco1)N2)c1ccc(OC(F)(F)F)cc1 (stereo not drawn),inconclusive: -46.9%
13,O=C(COc1ccc(Cl)cc1Cl)NC(=O)N1CCOCC1,inconclusive: -54.3%
14,Cc1cccn2c(NC(=O)c3cccs3)c(-c3ccccc3)nc12,inactive: 23.9%
15,O=c1cc(CNC2CCCCC2)c2ccccc2[nH]1,inactive: 4.31%
16,CC(C)(CSc1ccccn1)NS(=O)(=O)c1ccccc1,inactive: 81.4%
17,O=[N+]([O-])c1ccc(N2CCOCC2)cc1NC(c1ccccc1)c1ccccc1,inconclusive: -79.6%
18,CC(=O)OCC1O[C@@H](O[C@@H]2C[C@H]3C(C)(C)[C@H](OC(C)=O)CC[C@]3(C)[C@H]3CC[C@]45C[C@]4(CC[C@H]5[C@@H](C)C[C@@H](O)[C@H](O)C(C)(C)O)[C@@]32C)[C@H](O)[C@@H](O)[C@@H]1O (stereo partly drawn),active: -115%
19,CCc1cccc2c(C(=O)CSc3nncn3-c3ccc(OC)cc3)c[nH]c12,active: -104%
20,COc1ccc(-c2noc(CCC(=O)NCC3CCN(Cc4cccc(C)c4)CC3)n2)cc1,inconclusive: -35%
21,CCC(=O)c1ccccc1OCCCn1cncn1,inconclusive: -52.8%
22,Cc1cc(C)c(NC(=O)CSc2nnc(-c3ccncc3)n2Cc2ccco2)c(C)c1,inconclusive: -57.7%

row,SMILES,"activity change (PNC), negative = inhibition"
1,COc1ccc2cc3cc(C(=O)NCCCN4CCOCC4)oc3nc2c1,inactive: 29.6%
2,COc1ccc2nc(SCC(=O)Nc3ccc4c(c3)OCCO4)[nH]c2c1,inactive: 7.93%
3,Cc1ccc(S(=O)(=O)N2CCN(C(=O)CSc3nnc(C)s3)C2)cc1,inconclusive: -30.3%
4,CC12C(=O)N(c3ccccn3)C(=O)C1C1C=CC2C1 (stereo not drawn),inconclusive: -36.7%
5,O=c1cc(N2CCc3ccccc32)[nH]c(=O)n1-c1ccc(Br)cc1,inactive: -13.5%
6,COc1nc(OC)nc(N2CCC(C(=O)Nc3cccc4ccccc34)CC2)n1,inconclusive: -65.1%
7,CC1(C)Cc2c(sc3c2C2=NCCN2C=N3)CO1,inactive: -27.8%
8,CCN(CC)C(=O)CC(c1ccc(F)cc1)c1ccco1 (stereo not drawn),inconclusive: -67.3%
9,Cc1ccc(S(=O)(=O)N2CCOCC2)cc1NC(=O)CSc1nnc2cc(C)c3ccccc3n12,inconclusive: -68.9%
10,COc1ccc(OC)c(Nc2cc(-c3ccccc3)nc(N)n2)c1,inconclusive: -42.9%
11,O=C(CCc1ccccc1)Nc1cc2c(cc1Cl)OCCO2,active: -109%
12,C=CCn1c(CCNC(=O)c2cccs2)nnc1SCC(=O)Nc1cccc(Cl)c1C,inconclusive: -31.1%
13,O=C(CC(c1ccccc1)c1ccccc1O)NCc1ccco1 (stereo not drawn),inactive: -0.25%
14,O=C1Cc2ccccc2N1c1c(Cl)cccc1Cl,inconclusive: -66%
15,CC1=C(C(=O)OCc2ccccc2)C(c2ccc(-c3ccccc3)cc2)NC(=O)N1CCCCCC(=O)O (stereo not drawn),inactive: 47.4%
16,O=C(N1CCOCC1)N1CCN(c2nc(-c3ccc(F)cc3)cs2)CC1,inconclusive: -34.4%
17,COC(=O)N/N=C/c1ccc(-c2cc(Cl)cc(Cl)c2)o1,inactive: -25.7%
18,CCc1nnc(NC(=O)c2ccc(S(=O)(=O)N(CC(C)C)CC(C)C)cc2)o1,inconclusive: -39.9%
19,Cc1cc(C)nc(N=Nc2c(O)n(Cc3ccc(Cl)cc3)c3ccccc23)n1,inactive: 2.15%
20,COc1ccc(/C=N/n2c(SC)nnc(C(C)(C)C)c2=O)cc1,inconclusive: -46.9%
21,Cc1ccc(NC2=NCC(=O)N2CCc2ccccc2)cc1C,inactive: -9%
22,COc1cccc(C(=O)NCC2CCN(c3ccc(S(=O)(=O)N4CCOCC4)cc3)CC2)c1,inactive: 24%

row,SMILES,"activity change (PNC), negative = inhibition"
1,CCOc1ccc(C(=O)NCC(=O)OCC(=O)N2CCCCC2)cc1,inactive: 31.9%
2,CCC(C)NC(=O)CN(c1ccc(OC)cc1)S(=O)(=O)c1ccc(NC(C)=O)cc1 (stereo not drawn),active: -127%
3,COCc1cc(C)nc2sc(C(=O)OC(C)C)c(N)c12,inconclusive: -57.1%
4,O=C(Nc1ccccc1OC(=O)c1ccc(Cl)cc1)c1ccc(Cl)cc1,active: -94.2%
5,O=C(Nc1ccc(F)cc1)c1ccccc1Oc1ccc(C(F)(F)F)cc1[N+](=O)[O-],inconclusive: -30.8%
6,CCOc1ccc(Cl)cc1S(=O)(=O)N1CCN(c2ccc(F)cc2)CC1,inconclusive: -40.9%
7,O=C(Nc1ccccc1N1CCN(C(=O)c2ccc(Cl)cc2)CC1)c1cccnc1,inconclusive: -32.4%
8,COc1cc2c(cc1OC)C(Cc1ccc(O)cc1)N(C)CC2 (stereo not drawn),inconclusive: -54.8%
9,CCOc1ccc(NCc2nc3ccccc3n2CCOc2ccccc2)cc1,active: -113%
10,Cc1ccc(C(c2sc3nc(C)nn3c2O)N2CCN(c3ccccc3)CC2)cc1 (stereo not drawn),inconclusive: -31.4%
11,COc1ccc(C(=O)N/C(=C\c2cn(C)c3ccccc23)C(=O)OCC(C)C)cc1,inconclusive: -42.4%
12,Cc1ccc(S(=O)(=O)NC(=O)CSc2nc3ccccc3s2)cc1,inactive: 17.6%
13,Cc1cccc2cc(CN(CCN(C)C)C(=S)Nc3ccccc3)c(=O)[nH]c12,active: -99.3%
14,CC1(C)CC(=O)C2=C(C1)N(Cc1ccco1)C(=O)C2(NC(=O)c1cccnc1)C(F)(F)F (stereo not drawn),inconclusive: -37%
15,COc1ccc(CNS(=O)(=O)c2cccc(S(=O)(=O)N3CCOCC3)c2)cc1,inactive: -24.4%
16,O=C(Nc1ccccc1Br)c1ccccc1-c1ccccc1,inconclusive: -31.8%
17,COC(=O)/C=C/c1ccsc1NC(C)=O,inactive: 19.6%
18,O=C(NCc1ccccn1)C1CC(c2ccc(Cl)c(Cl)c2)=NO1 (stereo not drawn),inconclusive: -62.8%
19,O=C(NCCC1=CCCCC1)c1ccc2c(c1)N(Cc1ccccc1)C(=O)CS2,active: -83.9%
20,N#Cc1nc(-c2cccs2)oc1N1CCOCC1,inconclusive: -54.8%
21,COc1ccc(C2c3c(ncn(CCN4CCOCC4)c3=N)Oc3ccc4ccccc4c32)cc1OC (stereo not drawn),inactive: -26.1%
22,Cc1cc(C)c2c(N=NN3CCCCC3)[nH]nc2n1,inconclusive: -39.1%

# Another view of part of the listing above:
row | SMILES | activity change (PNC), negative = inhibition
8 | COc1cc2c(cc1OC)C(Cc1ccc(O)cc1)N(C)CC2 (stereo not drawn) | inconclusive: -54.8%
11 | COc1ccc(C(=O)N/C(=C\c2cn(C)c3ccccc23)C(=O)OCC(C)C)cc1 | inconclusive: -42.4%
14 | CC1(C)CC(=O)C2=C(C1)N(Cc1ccco1)C(=O)C2(NC(=O)c1cccnc1)C(F)(F)F (stereo not drawn) | inconclusive: -37%
16 | O=C(Nc1ccccc1Br)c1ccccc1-c1ccccc1 | inconclusive: -31.8%
22 | Cc1cc(C)c2c(N=NN3CCCCC3)[nH]nc2n1 | inconclusive: -39.1%

# From PubChem BioAssay AID2417 (National Center for Advancing Translational Sciences (NCATS), 2010)
